Results deposited as PubChem BioAssay AID1259308 (NCATS, 2017).

- Purpose: 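Candidate targets for better recombinant protein yield in mammalian cells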 (primary screen)
- Cells: human HEK293 embryonic kidney cells stably expressing firefly luciferase (HEK-CMV-Luc2-Hygro)
- Reagent: single siRNA against human genes, 0.8 pmol siRNA per well
- Time to read-out: 72 h
- Detection: 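Luciferase light (ONE-Glo) measured on one replicate plate set and viability (CellTiter-Glo) on the other, scaled to a negative control siRNA, with robust z-scores and luciferase per cell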
- Reading the numbers: total luciferase, z-score: higher = more reporter protein produced
- Rule for the call: 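An siRNA counts as active if its total luciferase robust z-score exceeds 3; genes with two or more such siRNAs out of three were retested with fresh siRNAs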
- Calls: active = raised luciferase; inactive = no rise
Here is one part, drawn at random, of about 59,000 reagents. In the full data, about 1,510 (2.6%) got an active call. 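Calls use total luciferase alone and ignore viability, so some active siRNAs may act by altering cell number.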 Further read-outs or replicates are left out here.

gene | PubChem SID | total luciferase, z-score | Outcome
RNF215 (ring finger protein 215) | SID160760834 | 0.256 | inactive
RNF215 (ring finger protein 215) | SID160760835 | 3.74 | active
RNF215 (ring finger protein 215) | SID160760836 | -0.991 | inactive
BAMBI (BMP and activin membrane bound inhibitor) | SID160737016 | 0.103 | inactive
BAMBI (BMP and activin membrane bound inhibitor) | SID160737017 | -0.183 | inactive
BAMBI (BMP and activin membrane bound inhibitor) | SID160737018 | -0.1 | inactive
CRISP2 (cysteine rich secretory protein 2) | SID160718305 | 0.501 | inactive
CRISP2 (cysteine rich secretory protein 2) | SID160718306 | 1.2 | inactive
CRISP2 (cysteine rich secretory protein 2) | SID160718307 | -2.58 | inactive
ZNF20 (zinc finger protein 20) | SID160719025 | -0.22 | inactive
ZNF20 (zinc finger protein 20) | SID160719026 | -0.211 | inactive
ZNF20 (zinc finger protein 20) | SID160719027 | -0.662 | inactive
CRHR1 (corticotropin releasing hormone receptor 1) | SID160748148 | -0.0464 | inactive
CRHR1 (corticotropin releasing hormone receptor 1) | SID160748159 | -0.682 | inactive
CRHR1 (corticotropin releasing hormone receptor 1) | SID160748168 | 2.08 | inactive
TNFRSF12A (TNF receptor superfamily member 12A) | SID160724414 | 1.03 | inactive
TNFRSF12A (TNF receptor superfamily member 12A) | SID160724415 | -0.349 | inactive
TNFRSF12A (TNF receptor superfamily member 12A) | SID160724417 | -1.4 | inactive
CIBAR1 (CBY1 interacting BAR domain containing 1) | SID160732489 | 1.31 | inactive
CIBAR1 (CBY1 interacting BAR domain containing 1) | SID160757514 | 0.298 | inactive
CIBAR1 (CBY1 interacting BAR domain containing 1) | SID160757515 | 0.481 | inactive
TIFAB (TIFA inhibitor) | SID160768288 | 1.35 | inactive
TIFAB (TIFA inhibitor) | SID160768289 | -0.339 | inactive
TIFAB (TIFA inhibitor) | SID160768290 | 1.56 | inactive
SKA2P1 | SID160772343 | 2.43 | inactive
SKA2P1 | SID160772344 | -0.698 | inactive
SKA2P1 | SID160772345 | 0.822 | inactive
ITM2C (integral membrane protein 2C) | SID160750901 | -0.746 | inactive
ITM2C (integral membrane protein 2C) | SID160750902 | -0.632 | inactive
ITM2C (integral membrane protein 2C) | SID160750903 | 0.19 | inactive
ACP1 (acid phosphatase 1) | SID160731421 | -0.61 | inactive
ACP1 (acid phosphatase 1) | SID160777776 | 0.665 | inactive
ACP1 (acid phosphatase 1) | SID160777787 | 0.0358 | inactive
SEC31B (SEC31 homolog B, COPII component) | SID160737328 | -0.0597 | inactive
SEC31B (SEC31 homolog B, COPII component) | SID160737329 | 0.635 | inactive
SEC31B (SEC31 homolog B, COPII component) | SID160737330 | 0.923 | inactive
SV2C (synaptic vesicle glycoprotein 2C) | SID160734550 | 1.08 | inactive
SV2C (synaptic vesicle glycoprotein 2C) | SID160734557 | 0.0063 | inactive
SV2C (synaptic vesicle glycoprotein 2C) | SID160734568 | 1.4 | inactive
JOSD1 (Josephin domain containing 1) | SID160723469 | 1.74 | inactive
JOSD1 (Josephin domain containing 1) | SID160723470 | 0.1 | inactive
JOSD1 (Josephin domain containing 1) | SID160723471 | 0.592 | inactive
NXPE3 (neurexophilin and PC-esterase domain family member 3) | SID160754102 | -0.46 | inactive
NXPE3 (neurexophilin and PC-esterase domain family member 3) | SID160754103 | 2 | inactive
NXPE3 (neurexophilin and PC-esterase domain family member 3) | SID160754104 | -0.937 | inactive
KANK3 (KN motif and ankyrin repeat domains 3) | SID160724961 | -0.44 | inactive
KANK3 (KN motif and ankyrin repeat domains 3) | SID160724962 | 0.00396 | inactive
KANK3 (KN motif and ankyrin repeat domains 3) | SID160724964 | 1.65 | inactive
EMX2 (empty spiracles homeobox 2) | SID160760274 | 2.95 | inactive
EMX2 (empty spiracles homeobox 2) | SID160760284 | 0.783 | inactive
EMX2 (empty spiracles homeobox 2) | SID160760294 | -1.18 | inactive
INTS12 (integrator complex subunit 12) | SID160745633 | 1.74 | inactive
INTS12 (integrator complex subunit 12) | SID160745634 | -1.97 | inactive
INTS12 (integrator complex subunit 12) | SID160745635 | 1.55 | inactive
ACRV1 (acrosomal vesicle protein 1) | SID160733655 | 1.56 | inactive
ACRV1 (acrosomal vesicle protein 1) | SID160777891 | -1.12 | inactive
ACRV1 (acrosomal vesicle protein 1) | SID160777912 | 0.086 | inactive

Reagents listed so far marked active:
gene | PubChem SID | total luciferase, z-score | Outcome
RNF215 (ring finger protein 215) | SID160760835 | 3.74 | active
